Measurements: PMC12819557

Columns and labels:
Test in all cases: two-hybrid; bacterial adenylate cyclase two-hybrid (BACTH) in E. coli Oxi-Blue; T18 (FLAG) and T25 (6His) fusions co-transformed; LB agar with Tic, Km, IPTG 0.5 mM and X-gal 40 µg/ml, 30 °C, colour of colonies after 24 to 48 h
[1] = target: T1, C-terminal domain of PilC1 (pilC1 476-1021) (Neisseria meningitidis) (UniProt O05924)
T1 sequence: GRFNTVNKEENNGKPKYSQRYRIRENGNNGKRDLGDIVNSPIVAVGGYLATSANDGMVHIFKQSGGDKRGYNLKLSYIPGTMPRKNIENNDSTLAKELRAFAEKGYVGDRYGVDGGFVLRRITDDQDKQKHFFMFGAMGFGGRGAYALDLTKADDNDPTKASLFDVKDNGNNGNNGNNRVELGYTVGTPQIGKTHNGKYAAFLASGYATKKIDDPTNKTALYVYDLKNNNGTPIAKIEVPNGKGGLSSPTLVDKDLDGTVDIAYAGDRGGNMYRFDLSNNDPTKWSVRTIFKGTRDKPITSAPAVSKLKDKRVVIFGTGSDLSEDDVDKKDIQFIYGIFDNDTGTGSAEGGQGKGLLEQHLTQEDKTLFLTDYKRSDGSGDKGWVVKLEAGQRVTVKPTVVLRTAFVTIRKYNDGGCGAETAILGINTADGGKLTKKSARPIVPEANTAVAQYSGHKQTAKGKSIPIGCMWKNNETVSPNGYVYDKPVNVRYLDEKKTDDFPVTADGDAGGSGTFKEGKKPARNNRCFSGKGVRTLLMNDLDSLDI

[2] = target: T2, N-terminal domain of PilC2 (pilC2 2-492) (Neisseria meningitidis) (UniProt O05925)
T2 sequence: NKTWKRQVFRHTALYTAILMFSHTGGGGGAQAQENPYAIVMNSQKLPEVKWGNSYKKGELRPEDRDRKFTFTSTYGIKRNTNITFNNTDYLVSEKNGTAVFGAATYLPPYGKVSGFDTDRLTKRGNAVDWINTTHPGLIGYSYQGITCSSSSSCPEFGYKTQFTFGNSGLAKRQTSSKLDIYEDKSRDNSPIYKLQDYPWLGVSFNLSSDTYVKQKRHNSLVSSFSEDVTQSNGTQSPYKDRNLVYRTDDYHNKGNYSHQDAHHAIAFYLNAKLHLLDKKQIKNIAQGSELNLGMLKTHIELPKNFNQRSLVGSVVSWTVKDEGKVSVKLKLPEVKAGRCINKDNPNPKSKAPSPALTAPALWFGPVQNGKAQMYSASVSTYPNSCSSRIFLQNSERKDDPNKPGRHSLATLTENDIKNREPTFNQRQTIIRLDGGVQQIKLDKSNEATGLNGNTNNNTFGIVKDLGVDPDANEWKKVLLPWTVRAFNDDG

[3] = target: T3, N-terminal domain of PilC1 (pilC1 1-475) (Neisseria meningitidis) (UniProt O05924)
T3 sequence: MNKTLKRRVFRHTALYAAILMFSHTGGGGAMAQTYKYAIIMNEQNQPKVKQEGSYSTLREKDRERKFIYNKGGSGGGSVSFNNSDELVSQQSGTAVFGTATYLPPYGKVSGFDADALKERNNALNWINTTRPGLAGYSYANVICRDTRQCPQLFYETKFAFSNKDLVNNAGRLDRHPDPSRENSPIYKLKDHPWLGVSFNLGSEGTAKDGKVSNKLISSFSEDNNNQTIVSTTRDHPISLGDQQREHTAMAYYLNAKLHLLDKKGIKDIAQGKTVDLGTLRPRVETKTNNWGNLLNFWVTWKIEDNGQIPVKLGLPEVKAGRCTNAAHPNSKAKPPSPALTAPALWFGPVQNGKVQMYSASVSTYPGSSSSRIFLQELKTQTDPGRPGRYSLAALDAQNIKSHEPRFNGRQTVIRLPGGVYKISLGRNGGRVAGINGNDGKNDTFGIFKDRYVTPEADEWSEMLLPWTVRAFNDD

Measured: binding

MDAΦ ORF6
no binding: [1] | [2] | [3]

These are yes or no findings as the source states them, for the method shown.
